One data set has as its target NF-κB p65 (Homo sapiens) (UniProt Q04206). Briefly: competition with a labelled probe. As to conditions: dodecylene (C12) spacer joining the strands; protein in an extract.
For data set [1], the target named is NF-IL6 (C/EBP) (Homo sapiens) (UniProt P17676). Briefly: competition with a labelled probe. As to conditions: dodecylene (C12) spacer joining the strands; protein in an extract.
In another data set the target is T1, STAT6 (Mus musculus) (UniProt P52633).
T1 sequence (looked up, limits assumed): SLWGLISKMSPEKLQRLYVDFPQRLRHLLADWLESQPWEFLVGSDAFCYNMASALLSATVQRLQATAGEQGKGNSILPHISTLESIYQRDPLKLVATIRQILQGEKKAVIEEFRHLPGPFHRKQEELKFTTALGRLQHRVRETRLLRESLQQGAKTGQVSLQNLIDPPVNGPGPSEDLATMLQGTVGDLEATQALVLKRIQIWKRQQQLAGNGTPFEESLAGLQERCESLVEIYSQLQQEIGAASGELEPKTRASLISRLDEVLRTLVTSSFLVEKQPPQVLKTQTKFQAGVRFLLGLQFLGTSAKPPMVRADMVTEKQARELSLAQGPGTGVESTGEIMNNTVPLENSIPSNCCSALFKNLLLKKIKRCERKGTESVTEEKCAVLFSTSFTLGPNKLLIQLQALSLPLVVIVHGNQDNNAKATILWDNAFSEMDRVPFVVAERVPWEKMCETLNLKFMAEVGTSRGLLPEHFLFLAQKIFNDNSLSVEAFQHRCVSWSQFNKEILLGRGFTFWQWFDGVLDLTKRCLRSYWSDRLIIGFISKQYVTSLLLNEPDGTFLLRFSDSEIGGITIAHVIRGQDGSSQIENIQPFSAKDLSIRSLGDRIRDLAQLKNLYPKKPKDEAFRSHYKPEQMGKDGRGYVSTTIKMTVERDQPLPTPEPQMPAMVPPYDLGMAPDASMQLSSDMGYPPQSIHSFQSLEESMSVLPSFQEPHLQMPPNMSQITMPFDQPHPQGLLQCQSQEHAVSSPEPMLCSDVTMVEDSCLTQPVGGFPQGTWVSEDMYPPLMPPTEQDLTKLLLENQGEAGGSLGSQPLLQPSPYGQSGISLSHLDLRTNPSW
Briefly: EMSA. The conditions noted are these: lung nuclear extract, poly(dI-dC), room temperature 30 min; reduced after chimeric decoy treatment in vivo; protein in an extract; protein details: nuclear extract of OVA-challenged mouse lung; label: 32P 3' end. A general note: A gel shift assay detects complexes by their altered migration in electrophoresis.

Amino acid sequences for entries named in this document (tags omitted). A change or cut given only in a name is not applied to a line headed by its entry. Residues count along the entry.
UniProt Q04206, whole entry: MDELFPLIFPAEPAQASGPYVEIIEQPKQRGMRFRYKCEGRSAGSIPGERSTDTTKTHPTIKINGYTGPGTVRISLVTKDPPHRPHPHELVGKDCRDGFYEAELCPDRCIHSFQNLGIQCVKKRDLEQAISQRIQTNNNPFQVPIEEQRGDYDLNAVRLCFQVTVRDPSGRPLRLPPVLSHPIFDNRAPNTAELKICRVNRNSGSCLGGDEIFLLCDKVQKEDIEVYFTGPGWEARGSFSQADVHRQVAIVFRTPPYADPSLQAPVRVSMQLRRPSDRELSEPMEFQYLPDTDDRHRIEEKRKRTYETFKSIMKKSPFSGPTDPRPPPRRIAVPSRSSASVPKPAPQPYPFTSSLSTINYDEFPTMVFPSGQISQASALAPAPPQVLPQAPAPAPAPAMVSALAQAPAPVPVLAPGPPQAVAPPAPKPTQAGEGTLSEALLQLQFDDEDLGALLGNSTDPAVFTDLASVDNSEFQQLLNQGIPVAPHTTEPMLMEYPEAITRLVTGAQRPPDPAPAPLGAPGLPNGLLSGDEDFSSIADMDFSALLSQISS
UniProt P17676: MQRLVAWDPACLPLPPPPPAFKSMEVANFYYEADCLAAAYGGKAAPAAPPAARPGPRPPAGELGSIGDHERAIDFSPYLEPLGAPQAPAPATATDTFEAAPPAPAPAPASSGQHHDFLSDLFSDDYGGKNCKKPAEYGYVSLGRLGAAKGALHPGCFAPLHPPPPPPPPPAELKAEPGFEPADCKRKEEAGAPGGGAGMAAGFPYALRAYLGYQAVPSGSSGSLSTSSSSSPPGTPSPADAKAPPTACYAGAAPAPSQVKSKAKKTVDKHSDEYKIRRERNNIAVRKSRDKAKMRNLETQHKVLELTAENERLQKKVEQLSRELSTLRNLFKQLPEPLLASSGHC
UniProt P42224, 2-750: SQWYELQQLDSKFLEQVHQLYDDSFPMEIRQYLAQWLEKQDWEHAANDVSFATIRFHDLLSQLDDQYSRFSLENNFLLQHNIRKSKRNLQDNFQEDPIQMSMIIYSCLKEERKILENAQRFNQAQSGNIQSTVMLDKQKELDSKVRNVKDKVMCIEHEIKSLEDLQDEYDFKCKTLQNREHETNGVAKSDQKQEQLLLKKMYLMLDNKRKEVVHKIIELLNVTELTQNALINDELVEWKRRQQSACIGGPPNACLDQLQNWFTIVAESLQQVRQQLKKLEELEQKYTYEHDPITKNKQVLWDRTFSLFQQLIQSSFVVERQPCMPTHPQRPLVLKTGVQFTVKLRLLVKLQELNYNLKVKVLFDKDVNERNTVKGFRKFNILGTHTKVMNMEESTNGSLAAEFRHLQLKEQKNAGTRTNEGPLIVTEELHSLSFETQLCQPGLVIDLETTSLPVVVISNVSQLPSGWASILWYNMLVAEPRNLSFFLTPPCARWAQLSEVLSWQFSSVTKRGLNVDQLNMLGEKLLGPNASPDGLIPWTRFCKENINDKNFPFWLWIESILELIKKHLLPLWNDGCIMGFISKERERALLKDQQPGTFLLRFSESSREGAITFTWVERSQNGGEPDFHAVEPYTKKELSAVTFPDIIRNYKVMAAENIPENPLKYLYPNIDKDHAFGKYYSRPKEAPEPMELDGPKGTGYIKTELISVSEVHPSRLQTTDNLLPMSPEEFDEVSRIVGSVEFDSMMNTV

A further data set concerns the target STAT1 (Homo sapiens) (UniProt P42224). Briefly: competition with a labelled probe. The conditions noted are these: dodecylene (C12) spacer joining the strands; protein in an extract.
The next data set addresses T2, NFATc1 (Homo sapiens) (UniProt O95644).
T2 sequence (looked up, limits assumed): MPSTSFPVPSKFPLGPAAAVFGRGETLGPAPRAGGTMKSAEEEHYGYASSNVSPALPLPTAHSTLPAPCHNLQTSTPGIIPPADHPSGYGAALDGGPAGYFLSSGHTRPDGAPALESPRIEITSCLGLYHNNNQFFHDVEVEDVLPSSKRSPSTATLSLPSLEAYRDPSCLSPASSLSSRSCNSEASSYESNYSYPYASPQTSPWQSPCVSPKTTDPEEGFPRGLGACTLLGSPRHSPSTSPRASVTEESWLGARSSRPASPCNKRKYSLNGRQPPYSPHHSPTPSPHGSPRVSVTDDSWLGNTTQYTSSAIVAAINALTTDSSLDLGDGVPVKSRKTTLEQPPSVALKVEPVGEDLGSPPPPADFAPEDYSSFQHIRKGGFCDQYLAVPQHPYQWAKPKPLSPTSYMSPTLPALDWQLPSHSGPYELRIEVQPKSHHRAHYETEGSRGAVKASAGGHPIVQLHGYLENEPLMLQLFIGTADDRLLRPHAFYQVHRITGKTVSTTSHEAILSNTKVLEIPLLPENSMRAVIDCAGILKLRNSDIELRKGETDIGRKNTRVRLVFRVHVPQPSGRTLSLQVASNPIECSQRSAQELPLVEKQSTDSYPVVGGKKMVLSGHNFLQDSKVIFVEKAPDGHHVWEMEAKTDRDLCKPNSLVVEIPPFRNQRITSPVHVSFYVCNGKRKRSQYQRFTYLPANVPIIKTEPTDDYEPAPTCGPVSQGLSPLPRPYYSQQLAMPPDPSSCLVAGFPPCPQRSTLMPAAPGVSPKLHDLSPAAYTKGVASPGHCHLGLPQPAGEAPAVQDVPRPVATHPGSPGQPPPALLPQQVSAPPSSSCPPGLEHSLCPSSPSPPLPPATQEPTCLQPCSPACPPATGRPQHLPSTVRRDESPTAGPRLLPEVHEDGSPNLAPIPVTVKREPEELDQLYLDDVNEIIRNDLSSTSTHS
Briefly: competition with a labelled probe. The conditions noted are these: dodecylene (C12) spacer joining the strands; protein in an extract.

Results from cells or extracts need not show a direct contact. For some assays here: Where a protein sequence is shown, tags need not be part of it. For some assays here: For at least one entry, the source does not settle the construct or the ends of the probe.

The sequence GGGACTTCCCATGAA [NF-κB/STAT6-15mer-A] yielded an IC50 with NF-κB p65 (Homo sapiens) of 18.8 nM. This counts as double-digit nanomolar.
In turn, GGGATTTCCTGGGAA [NF-κB/STAT6-15mer-B] showed an IC50 with NF-κB p65 (Homo sapiens) of 3.61 nM. This IC50 lies about 5.2-fold lower than the previous one.
As to GGGATTTCCCAATCT [NF-κB/NF-IL6-15mer-A], the figures for the IC50 (with NF-κB p65 (Homo sapiens); in data set [1]) were 2.28 nM and > 400 nM, respectively.
Turning to “GTATTTCCCAGAAAAGGAAC (double strand) [STAT6 EMSA probe]”, the binding result with STAT6 (Mus musculus) was “binds”.
In turn, GGGGACTTCCGGGTG [NF-κB/Ets1-15mer-B] showed an IC50 with NF-κB p65 (Homo sapiens) of 6.09 nM.
Turning to GGGACTTCCCGGAAT [NF-κB/STAT1-15mer-B], the IC50 came to 19.1 nM with STAT1 (Homo sapiens) and 9.94 nM in the data set with NF-κB p65 (Homo sapiens).
For GGGATTCCGCAATCT [NF-κB/NF-IL6-15mer-B], the IC50 with NF-κB p65 (Homo sapiens) turned out to be 9.51 nM; in data set [1], 165 nM.
As for GGGGAATTTTCCTCT [NF-κB/NF-AT-15mer-A], the half-maximal inhibitory concentration (IC50) turned out to be 5.69 nM with NF-κB p65 (Homo sapiens) and 133 nM with NFATc1 (Homo sapiens).
As for GGGACTTCCAGGAAT [NF-κB/STAT1-15mer-A], the figures for the IC50 in the data set with STAT1 (Homo sapiens) and with NF-κB p65 (Homo sapiens) were 13.9 nM and 31.8 nM, respectively.
Take GGGGACTTCCTGCTC [NF-κB/Ets1-15mer-A]: the IC50 with NF-κB p65 (Homo sapiens) was 5.51 nM.
For the sequence GGGGGATTTTCCTCT [NF-κB/NF-AT-15mer-B], the IC50 in the data set with NF-κB p65 (Homo sapiens) turned out to be 1.67 nM; with NFATc1 (Homo sapiens) it was 146 nM.

One may read the IC50 as the concentration that gives 50% inhibition. Higher therefore signals a need for much substance.

Values taken from patent US20180298381.
